According to paper PMC9883245:
No constants are given. Whether binding was seen depends on the method and setting. In cells and extracts the contact can be indirect. Some binding calls cover weakened binding; strength is not graded here. For some assays here: Where a sequence is shown, tags or fusion partners need not be part of it.

Protein sequences, listed by entry. Tags and fused reporters are not part of them.
UniProt P35222: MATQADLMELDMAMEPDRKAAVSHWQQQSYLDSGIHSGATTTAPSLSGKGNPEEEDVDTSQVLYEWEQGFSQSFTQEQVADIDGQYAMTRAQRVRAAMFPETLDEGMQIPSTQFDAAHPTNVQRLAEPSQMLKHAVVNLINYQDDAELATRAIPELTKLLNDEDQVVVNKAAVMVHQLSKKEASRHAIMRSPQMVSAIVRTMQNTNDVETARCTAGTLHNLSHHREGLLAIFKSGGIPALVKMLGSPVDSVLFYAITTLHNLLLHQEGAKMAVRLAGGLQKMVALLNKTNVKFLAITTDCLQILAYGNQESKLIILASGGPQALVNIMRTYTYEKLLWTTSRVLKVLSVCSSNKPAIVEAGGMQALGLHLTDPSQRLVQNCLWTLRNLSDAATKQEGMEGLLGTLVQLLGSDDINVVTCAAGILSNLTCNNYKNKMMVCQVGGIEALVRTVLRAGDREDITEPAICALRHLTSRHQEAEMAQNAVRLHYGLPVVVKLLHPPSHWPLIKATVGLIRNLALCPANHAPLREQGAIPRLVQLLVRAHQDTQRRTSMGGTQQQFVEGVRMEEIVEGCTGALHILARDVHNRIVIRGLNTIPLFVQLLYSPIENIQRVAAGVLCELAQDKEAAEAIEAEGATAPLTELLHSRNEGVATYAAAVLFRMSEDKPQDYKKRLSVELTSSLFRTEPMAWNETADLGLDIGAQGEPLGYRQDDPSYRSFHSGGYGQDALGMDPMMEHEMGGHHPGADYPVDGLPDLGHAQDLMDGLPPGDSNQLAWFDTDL

Key:
GST-USP39 (human) = target: T1, GST-USP39 (human) (UniProt Q53GS9); assay: pull-down; purified GST-tagged protein incubated with lysate of HEK 293T cells expressing HA-β-catenin (and Flag-Ub), 4 h at 4 °C, western blot; only the target purified
T1 sequence: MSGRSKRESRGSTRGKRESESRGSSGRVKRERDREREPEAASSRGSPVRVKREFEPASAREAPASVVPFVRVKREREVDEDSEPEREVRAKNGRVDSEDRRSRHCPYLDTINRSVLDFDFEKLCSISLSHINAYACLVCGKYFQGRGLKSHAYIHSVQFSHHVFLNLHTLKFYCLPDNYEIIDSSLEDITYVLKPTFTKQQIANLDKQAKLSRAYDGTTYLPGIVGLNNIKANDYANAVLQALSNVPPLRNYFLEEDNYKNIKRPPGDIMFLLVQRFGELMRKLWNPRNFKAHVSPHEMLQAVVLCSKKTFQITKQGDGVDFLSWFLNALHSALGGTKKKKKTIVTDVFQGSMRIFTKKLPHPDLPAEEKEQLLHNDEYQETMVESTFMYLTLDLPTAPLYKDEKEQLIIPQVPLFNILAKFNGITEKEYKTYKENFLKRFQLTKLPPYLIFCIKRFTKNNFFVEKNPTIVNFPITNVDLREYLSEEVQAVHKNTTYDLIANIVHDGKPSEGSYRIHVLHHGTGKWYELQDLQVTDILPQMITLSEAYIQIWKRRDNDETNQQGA

[1] = target: T2, Ubiquitin-specific protease 39 (USP39) (human) (UniProt Q53GS9); assay: co-IP; PLC/PRF/5 cell lysate in RIPA buffer with PMSF, protein A/protein G agarose beads, 4 h at 4 °C, western blot
T2 sequence: T1 sequence

Row | binding (GST-USP39 (human)) | binding [1] | Substance
1 | binds | – | HA-β-catenin (from UniProt P35222 1-781)
2 | – | binds | β-catenin (from UniProt P35222 1-781)
